{"source": "PubChem BioAssay AID1224830, NIAID – 2016", "purpose": "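Regulators of TLR4 signalling towards TNF-alpha in macrophage-like cells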 (primary screen)", "system": "human THP-1 monocytic leukaemia cells, TNF dual-luciferase reporter clone, PMA-differentiated to macrophage-like cells", "reagent": "siRNA pool against human genes, 50 nM", "time to read-out": "LPS for 4 h, given about 3 days after siRNA transfection", "conditions": "bacterial LPS (TLR4 ligand), 10 ng/ml", "read-out": "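Ratio of firefly to renilla light, scaled to the plate median and expressed as a robust z-score per replicate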", "scale": "TNF reporter robust z-score: higher = stronger TNF reporter response to LPS", "hit rule": "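a well is active when its z-score exceeds 2.8 or falls below -1.5; control wells carry no call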", "note": "The deposit covers about 18,000 reagents; shown is a random part of them. About 2,900 of them (16%) count as active. 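Calls are made per well; low scores hint the gene aids the LPS response, high scores that it dampens it.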 A number with no mark means an inactive call. Repeated entries: four replicate wells of each siRNA pool."}
The first 7 entries, ahead of the listing:
{"gene knocked down": "PROS1", "TNF reporter robust z-score": -0.46}
{"gene knocked down": "PROS1", "TNF reporter robust z-score": 0.1}
{"gene knocked down": "PROS1", "TNF reporter robust z-score": -0.26}
{"gene knocked down": "PROS1", "TNF reporter robust z-score": 1.06}
{"gene knocked down": "GDI2", "TNF reporter robust z-score": 0.05}
{"gene knocked down": "GDI2", "TNF reporter robust z-score": -0.46}
{"gene knocked down": "GDI2", "TNF reporter robust z-score": -0.17}

Main list, repeating the preview:
{"gene knocked down": "PROS1", "TNF reporter robust z-score": -0.46}
{"gene knocked down": "PROS1", "TNF reporter robust z-score": 0.1}
{"gene knocked down": "PROS1", "TNF reporter robust z-score": -0.26}
{"gene knocked down": "PROS1", "TNF reporter robust z-score": 1.06}
{"gene knocked down": "GDI2", "TNF reporter robust z-score": 0.05}
{"gene knocked down": "GDI2", "TNF reporter robust z-score": -0.46}
{"gene knocked down": "GDI2", "TNF reporter robust z-score": -0.17}
{"gene knocked down": "C14orf39", "TNF reporter robust z-score": 0.39}
{"gene knocked down": "C14orf39", "TNF reporter robust z-score": 1.12}
{"gene knocked down": "C14orf39", "TNF reporter robust z-score": -0.08}
{"gene knocked down": "C14orf39", "TNF reporter robust z-score": -0.1}
{"gene knocked down": "H2AC8", "TNF reporter robust z-score": 0.01}
{"gene knocked down": "H2AC8", "TNF reporter robust z-score": -0.49}
{"gene knocked down": "H2AC8", "TNF reporter robust z-score": -0.57}
{"gene knocked down": "H2AC8", "TNF reporter robust z-score": -0.61}
{"gene knocked down": "S100A8", "TNF reporter robust z-score": "-1.65 (active)"}
{"gene knocked down": "S100A8", "TNF reporter robust z-score": -1.31}
{"gene knocked down": "S100A8", "TNF reporter robust z-score": -1}
{"gene knocked down": "S100A8", "TNF reporter robust z-score": -1.3}
{"gene knocked down": "MCUB", "TNF reporter robust z-score": 0.53}
{"gene knocked down": "MCUB", "TNF reporter robust z-score": 1.09}
{"gene knocked down": "MCUB", "TNF reporter robust z-score": -0.08}
{"gene knocked down": "MCUB", "TNF reporter robust z-score": 0.39}
{"gene knocked down": "KCNQ2", "TNF reporter robust z-score": -0.77}
{"gene knocked down": "KCNQ2", "TNF reporter robust z-score": 0.26}
{"gene knocked down": "KCNQ2", "TNF reporter robust z-score": -0.19}
{"gene knocked down": "KCNQ2", "TNF reporter robust z-score": 0.79}
{"gene knocked down": "ELAVL4", "TNF reporter robust z-score": 1.83}
{"gene knocked down": "ELAVL4", "TNF reporter robust z-score": 1.21}
{"gene knocked down": "ELAVL4", "TNF reporter robust z-score": 1.41}
{"gene knocked down": "ELAVL4", "TNF reporter robust z-score": "3.61 (active)"}
{"gene knocked down": "MRPS17", "TNF reporter robust z-score": 1.36}
{"gene knocked down": "MRPS17", "TNF reporter robust z-score": -0.54}
{"gene knocked down": "MRPS17", "TNF reporter robust z-score": 0.72}
{"gene knocked down": "MRPS17", "TNF reporter robust z-score": 0.23}
{"gene knocked down": "CCDC157", "TNF reporter robust z-score": 0.52}
{"gene knocked down": "CCDC157", "TNF reporter robust z-score": -0.12}
{"gene knocked down": "CCDC157", "TNF reporter robust z-score": -0.83}
{"gene knocked down": "CCDC157", "TNF reporter robust z-score": 0.43}
{"gene knocked down": "KIDINS220", "TNF reporter robust z-score": -0.78}
{"gene knocked down": "KIDINS220", "TNF reporter robust z-score": -1.33}
{"gene knocked down": "KIDINS220", "TNF reporter robust z-score": -0.97}
{"gene knocked down": "KIDINS220", "TNF reporter robust z-score": -0.79}
{"gene knocked down": "GNG3", "TNF reporter robust z-score": -1.11}
{"gene knocked down": "GNG3", "TNF reporter robust z-score": -0.72}
{"gene knocked down": "GNG3", "TNF reporter robust z-score": -0.67}
{"gene knocked down": "GNG3", "TNF reporter robust z-score": -0.91}
{"gene knocked down": "CCT3", "TNF reporter robust z-score": -0.94}
{"gene knocked down": "CCT3", "TNF reporter robust z-score": -0.41}
{"gene knocked down": "CCT3", "TNF reporter robust z-score": 1.03}
{"gene knocked down": "CCT3", "TNF reporter robust z-score": 0.56}
{"gene knocked down": "VDR", "TNF reporter robust z-score": 0.27}
{"gene knocked down": "VDR", "TNF reporter robust z-score": 0.39}
{"gene knocked down": "VDR", "TNF reporter robust z-score": -0.16}
{"gene knocked down": "VDR", "TNF reporter robust z-score": 0.98}
{"gene knocked down": "NECAB2", "TNF reporter robust z-score": -0.1}
{"gene knocked down": "NECAB2", "TNF reporter robust z-score": -0.51}
{"gene knocked down": "NECAB2", "TNF reporter robust z-score": -0.55}
{"gene knocked down": "NECAB2", "TNF reporter robust z-score": -0.17}
{"gene knocked down": "PARP3", "TNF reporter robust z-score": -0.87}
{"gene knocked down": "PARP3", "TNF reporter robust z-score": 0.79}
{"gene knocked down": "PARP3", "TNF reporter robust z-score": -0.38}
